The values that follow come from article PMC10250389.

By UniProt entry, the sequences of proteins in these tests, tags left out. Where a name states a change or a piece, a line headed by the entry shows the natural chain unless it says otherwise.
UniProt P01024: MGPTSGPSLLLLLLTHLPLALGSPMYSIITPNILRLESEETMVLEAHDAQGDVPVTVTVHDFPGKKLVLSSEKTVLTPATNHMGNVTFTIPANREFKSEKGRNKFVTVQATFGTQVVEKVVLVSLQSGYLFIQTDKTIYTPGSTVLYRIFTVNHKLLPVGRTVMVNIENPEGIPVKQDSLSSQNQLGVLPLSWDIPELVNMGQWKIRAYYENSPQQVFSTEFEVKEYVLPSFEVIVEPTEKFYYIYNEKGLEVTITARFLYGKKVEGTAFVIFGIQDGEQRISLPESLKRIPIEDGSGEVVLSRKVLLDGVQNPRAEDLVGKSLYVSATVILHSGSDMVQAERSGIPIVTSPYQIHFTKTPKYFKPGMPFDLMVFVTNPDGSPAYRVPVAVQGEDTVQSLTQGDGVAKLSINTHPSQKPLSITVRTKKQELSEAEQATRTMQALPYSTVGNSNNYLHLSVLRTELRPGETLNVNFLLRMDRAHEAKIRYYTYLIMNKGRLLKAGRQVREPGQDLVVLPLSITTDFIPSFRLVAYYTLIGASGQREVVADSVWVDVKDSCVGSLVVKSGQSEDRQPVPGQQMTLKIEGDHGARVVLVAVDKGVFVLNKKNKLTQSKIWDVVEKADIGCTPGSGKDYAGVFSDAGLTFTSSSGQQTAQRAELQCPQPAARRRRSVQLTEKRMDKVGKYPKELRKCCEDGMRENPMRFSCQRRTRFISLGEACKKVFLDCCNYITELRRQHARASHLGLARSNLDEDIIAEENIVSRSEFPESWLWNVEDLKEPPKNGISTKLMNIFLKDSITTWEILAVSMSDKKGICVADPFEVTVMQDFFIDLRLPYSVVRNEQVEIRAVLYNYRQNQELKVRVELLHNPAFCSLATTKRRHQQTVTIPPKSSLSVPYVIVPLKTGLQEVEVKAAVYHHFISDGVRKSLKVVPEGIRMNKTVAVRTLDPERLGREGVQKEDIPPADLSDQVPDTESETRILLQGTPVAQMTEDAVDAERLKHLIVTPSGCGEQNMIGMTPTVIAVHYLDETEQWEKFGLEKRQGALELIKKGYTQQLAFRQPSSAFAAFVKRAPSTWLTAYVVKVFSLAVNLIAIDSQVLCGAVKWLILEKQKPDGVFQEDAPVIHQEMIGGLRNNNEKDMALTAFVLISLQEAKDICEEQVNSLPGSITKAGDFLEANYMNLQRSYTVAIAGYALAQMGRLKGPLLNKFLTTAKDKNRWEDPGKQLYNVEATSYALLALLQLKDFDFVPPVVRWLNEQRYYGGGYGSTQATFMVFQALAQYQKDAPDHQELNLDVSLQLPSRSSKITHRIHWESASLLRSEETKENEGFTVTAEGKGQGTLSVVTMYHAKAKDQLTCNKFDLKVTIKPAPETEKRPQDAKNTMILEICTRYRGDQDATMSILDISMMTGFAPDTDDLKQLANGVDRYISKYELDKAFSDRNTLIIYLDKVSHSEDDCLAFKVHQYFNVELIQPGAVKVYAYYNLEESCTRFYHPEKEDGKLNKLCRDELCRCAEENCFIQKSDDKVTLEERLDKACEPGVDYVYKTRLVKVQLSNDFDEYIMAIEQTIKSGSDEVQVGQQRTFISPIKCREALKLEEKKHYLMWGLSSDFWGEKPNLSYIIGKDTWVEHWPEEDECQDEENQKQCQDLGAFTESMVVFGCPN
UniProt Q09028: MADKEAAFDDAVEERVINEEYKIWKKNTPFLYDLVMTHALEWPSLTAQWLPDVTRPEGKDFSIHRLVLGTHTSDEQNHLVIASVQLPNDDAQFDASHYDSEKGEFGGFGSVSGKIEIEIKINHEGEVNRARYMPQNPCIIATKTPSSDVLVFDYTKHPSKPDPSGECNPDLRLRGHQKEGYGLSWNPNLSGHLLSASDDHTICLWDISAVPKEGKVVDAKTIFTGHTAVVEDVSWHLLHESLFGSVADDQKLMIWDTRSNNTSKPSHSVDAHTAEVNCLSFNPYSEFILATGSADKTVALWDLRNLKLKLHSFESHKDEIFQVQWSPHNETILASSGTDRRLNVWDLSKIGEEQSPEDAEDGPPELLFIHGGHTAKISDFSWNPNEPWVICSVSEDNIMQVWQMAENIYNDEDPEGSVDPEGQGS

No constants are given. Whether binding was seen depends on the method and setting. Binding seen in cells or lysates may run through a third protein. These calls come from enrichment with a bait or labelling near it, and not all partners need be listed.

For this experiment, the target named is complement C3b, the activated fragment of complement component 3 (nuclear C3b of A549-PTX cells) (human (endogenous in A549)) (UniProt P01024). Kind of experiment: affinity purification with mass spectrometry; nuclear proteins of A549-PTX cells; co-IP of C3b-binding proteins followed by mass spectrometric analysis.

On to RBBP4 (from UniProt Q09028 1-425), for which the binding result was “binds”.
